Our source for the binding values is publication PMC10810452.

Sequences of proteins named here, by UniProt entry; tags and fusion partners are left off.
UniProt Q93009: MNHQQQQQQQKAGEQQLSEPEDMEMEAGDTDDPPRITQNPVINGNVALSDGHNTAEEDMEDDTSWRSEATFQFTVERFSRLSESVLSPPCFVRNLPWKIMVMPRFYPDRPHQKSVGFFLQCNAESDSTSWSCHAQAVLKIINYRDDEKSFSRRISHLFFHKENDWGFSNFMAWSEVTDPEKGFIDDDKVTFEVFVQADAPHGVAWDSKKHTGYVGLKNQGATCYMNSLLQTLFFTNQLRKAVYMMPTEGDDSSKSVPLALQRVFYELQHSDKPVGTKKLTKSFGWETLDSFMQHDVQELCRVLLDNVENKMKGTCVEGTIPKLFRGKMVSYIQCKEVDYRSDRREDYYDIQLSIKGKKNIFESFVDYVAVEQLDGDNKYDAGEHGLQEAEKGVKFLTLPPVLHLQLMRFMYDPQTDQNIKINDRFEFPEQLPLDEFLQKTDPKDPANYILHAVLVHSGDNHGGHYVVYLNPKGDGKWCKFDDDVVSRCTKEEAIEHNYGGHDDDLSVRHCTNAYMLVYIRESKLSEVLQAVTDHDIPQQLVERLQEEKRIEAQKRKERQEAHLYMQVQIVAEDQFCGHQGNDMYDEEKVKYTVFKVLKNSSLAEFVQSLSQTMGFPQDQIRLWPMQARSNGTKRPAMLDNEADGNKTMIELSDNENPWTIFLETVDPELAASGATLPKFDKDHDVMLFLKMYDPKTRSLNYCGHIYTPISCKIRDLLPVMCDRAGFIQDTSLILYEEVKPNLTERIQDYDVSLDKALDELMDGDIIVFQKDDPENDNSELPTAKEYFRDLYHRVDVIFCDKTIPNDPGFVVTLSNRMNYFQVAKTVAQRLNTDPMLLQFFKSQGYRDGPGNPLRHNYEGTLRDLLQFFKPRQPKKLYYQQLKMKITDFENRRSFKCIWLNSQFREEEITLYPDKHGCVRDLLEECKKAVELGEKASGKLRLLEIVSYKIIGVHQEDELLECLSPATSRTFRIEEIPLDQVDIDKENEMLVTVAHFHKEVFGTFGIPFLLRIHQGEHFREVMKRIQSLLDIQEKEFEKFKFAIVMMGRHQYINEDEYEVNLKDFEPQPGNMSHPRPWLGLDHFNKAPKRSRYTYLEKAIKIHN

Test in all cases: co-IP
Assay [1] has as its target T1, FLAG-OTUD4 (1-425aa) (UniProt Q01804).
T1 sequence: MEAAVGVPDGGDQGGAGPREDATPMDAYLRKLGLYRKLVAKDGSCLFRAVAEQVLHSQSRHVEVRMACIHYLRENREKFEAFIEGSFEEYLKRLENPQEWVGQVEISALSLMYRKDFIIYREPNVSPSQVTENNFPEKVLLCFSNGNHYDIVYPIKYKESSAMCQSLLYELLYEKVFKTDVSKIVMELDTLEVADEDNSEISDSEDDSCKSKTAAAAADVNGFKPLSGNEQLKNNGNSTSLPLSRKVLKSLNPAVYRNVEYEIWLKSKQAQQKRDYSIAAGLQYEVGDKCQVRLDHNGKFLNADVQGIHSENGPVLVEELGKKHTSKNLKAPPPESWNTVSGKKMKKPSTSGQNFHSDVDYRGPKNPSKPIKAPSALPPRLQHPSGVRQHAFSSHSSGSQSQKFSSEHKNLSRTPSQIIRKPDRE

The target of assay [2] is T1, FLAG-OTUD4 (1-425aa). This is another data set of the same source.
In assay [3] the target is T2, FLAG-OTUD4 (wild type, full length), Q01804.
T2 chain: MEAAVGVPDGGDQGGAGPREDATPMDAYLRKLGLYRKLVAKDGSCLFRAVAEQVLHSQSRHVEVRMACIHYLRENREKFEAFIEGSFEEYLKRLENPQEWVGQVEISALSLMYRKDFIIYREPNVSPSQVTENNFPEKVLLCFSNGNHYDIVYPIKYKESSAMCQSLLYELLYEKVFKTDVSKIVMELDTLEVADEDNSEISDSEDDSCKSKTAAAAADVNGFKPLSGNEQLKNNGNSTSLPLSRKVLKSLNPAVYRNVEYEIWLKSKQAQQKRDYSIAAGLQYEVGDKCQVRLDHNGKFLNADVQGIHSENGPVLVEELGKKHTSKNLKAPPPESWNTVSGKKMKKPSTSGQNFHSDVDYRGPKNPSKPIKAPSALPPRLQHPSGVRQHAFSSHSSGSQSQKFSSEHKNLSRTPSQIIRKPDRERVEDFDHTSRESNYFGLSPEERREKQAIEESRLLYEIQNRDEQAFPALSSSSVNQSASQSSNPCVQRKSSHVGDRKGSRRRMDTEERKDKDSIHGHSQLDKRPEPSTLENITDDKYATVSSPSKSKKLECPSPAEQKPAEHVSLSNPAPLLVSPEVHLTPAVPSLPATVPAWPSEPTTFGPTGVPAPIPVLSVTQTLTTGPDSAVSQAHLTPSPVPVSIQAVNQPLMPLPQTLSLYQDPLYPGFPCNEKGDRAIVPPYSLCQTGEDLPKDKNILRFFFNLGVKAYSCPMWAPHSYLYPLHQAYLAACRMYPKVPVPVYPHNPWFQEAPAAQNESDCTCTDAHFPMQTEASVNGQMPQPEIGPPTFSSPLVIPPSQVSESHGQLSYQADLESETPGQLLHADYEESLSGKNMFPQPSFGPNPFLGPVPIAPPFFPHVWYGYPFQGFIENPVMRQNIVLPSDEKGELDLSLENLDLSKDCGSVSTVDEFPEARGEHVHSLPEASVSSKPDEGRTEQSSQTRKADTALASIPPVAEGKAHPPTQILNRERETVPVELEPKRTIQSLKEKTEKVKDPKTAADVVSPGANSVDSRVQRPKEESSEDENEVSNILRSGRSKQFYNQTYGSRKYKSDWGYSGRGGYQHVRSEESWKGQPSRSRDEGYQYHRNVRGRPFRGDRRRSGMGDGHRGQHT
The conditions noted are these: remark: other sources report otherwise.

Read-outs that look alike come from different tables or passages of the source. No constants are given. Whether binding was seen depends on the method and setting. In cells and extracts the contact can be indirect. Some binding calls cover weakened binding; strength is not graded here. Where a sequence is shown, tags or fusion partners need not be part of it.

As for “HA-USP7 (from UniProt Q93009 1-1102) (enzyme)”, the binding result with FLAG-OTUD4 (1-425aa) [1] was “binds”.

B1: FLAG-OTUD4 (1-425aa) (domain or fragment, UniProt Q01804 1-425)
chain: T1 sequence
Turning to B1, the binding entry with FLAG-OTUD4 (1-425aa) [2] is given as “binds”.

B2: FLAG-OTUD4 (wild type, full length), Q01804 1-1114 (enzyme)
chain: T2 chain
As for B2, the binding result in assay [3] was “binds”.
